# Measurements reported in PubChem BioAssay AID1259254 (NCATS, 2017).
# Assay: 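Finding genes that stop cells copying their DNA twice in one cycle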 (primary screen)
# Cells: human HCT116 colorectal cancer cells
# Reagent: single siRNA against human genes
# Time to read-out: 3 days
# Read-out: 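Nuclei stained with Hoechst and imaged; cell-cycle phase assigned by DNA content; G2 share scaled per plate, non-targeting siRNA 0%, GMNN siRNA 100%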
# Reading the numbers: G2 robust z-score: higher = more G2 cells, more excess DNA replication
# Call rule: 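Active siRNAs have a G2 robust z of 5 or more median absolute deviations over the median, which in these data means about 38% or higher of GMNN control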
# The whole screen tested about 59,000 reagents; below is an unselected part. About 1,550 of all reagents (2.6%) count as active. 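G2 share is only a proxy for re-replication; each gene was hit by three separate siRNAs, and active genes were retested.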 Entries without a mark were called inactive. The numbers tell different reagents against one gene apart. Not all columns of the deposit are shown. Reagent sequences are not shown. The record does not give: the amount of reagent.
gene,reagent,G2 robust z-score
FDX2 (ferredoxin 2),1,0.724
FDX2 (ferredoxin 2),2,-0.792
FDX2 (ferredoxin 2),3,-0.732
LYPLA2P2 (LYPLA2 pseudogene 2),1,1.03
LYPLA2P2 (LYPLA2 pseudogene 2),2,0.374
LYPLA2P2 (LYPLA2 pseudogene 2),3,0.000826
MYL1 (myosin light chain 1),1,-0.142
MYL1 (myosin light chain 1),2,1.59
MYL1 (myosin light chain 1),3,-0.0925
NQO1 (NAD(P)H quinone dehydrogenase 1),1,3.08
NQO1 (NAD(P)H quinone dehydrogenase 1),2,1.22
NQO1 (NAD(P)H quinone dehydrogenase 1),3,0.726
HMGN1P31,1,-0.437
HMGN1P31,2,-0.429
HMGN1P31,3,0.739
KIF16B (kinesin family member 16B),1,-0.252
KIF16B (kinesin family member 16B),2,-0.323
KIF16B (kinesin family member 16B),3,0.318
SIT1 (signaling threshold regulating transmembrane adaptor 1),1,-0.475
SIT1 (signaling threshold regulating transmembrane adaptor 1),2,-0.2
SIT1 (signaling threshold regulating transmembrane adaptor 1),3,-0.113
PCSK1 (proprotein convertase subtilisin/kexin type 1),1,0.346
PCSK1 (proprotein convertase subtilisin/kexin type 1),2,-0.102
PCSK1 (proprotein convertase subtilisin/kexin type 1),3,1.62

Ordered by “G2 robust z-score” (low to high): some entries from above
gene,reagent,G2 robust z-score
MYL1 (myosin light chain 1),1,-0.142
MYL1 (myosin light chain 1),3,-0.0925
LYPLA2P2 (LYPLA2 pseudogene 2),3,0.000826
NQO1 (NAD(P)H quinone dehydrogenase 1),3,0.726
NQO1 (NAD(P)H quinone dehydrogenase 1),2,1.22
MYL1 (myosin light chain 1),2,1.59
NQO1 (NAD(P)H quinone dehydrogenase 1),1,3.08

Further records follow.
gene,reagent,G2 robust z-score
AMPH (amphiphysin),1,2.08
AMPH (amphiphysin),2,1.9
AMPH (amphiphysin),3,-0.149
GNAL (G protein subunit alpha L),1,0.983
GNAL (G protein subunit alpha L),2,-0.17
GNAL (G protein subunit alpha L),3,-0.183
"LONP1 (lon peptidase 1, mitochondrial)",1,1.74
"LONP1 (lon peptidase 1, mitochondrial)",2,-1.03
"LONP1 (lon peptidase 1, mitochondrial)",3,-0.119
RBMS2 (RNA binding motif single stranded interacting protein 2),1,1.63
RBMS2 (RNA binding motif single stranded interacting protein 2),2,-0.418
RBMS2 (RNA binding motif single stranded interacting protein 2),3,2.66
ABCE1 (ATP binding cassette subfamily E member 1),1,3.93
ABCE1 (ATP binding cassette subfamily E member 1),2,-0.167
ABCE1 (ATP binding cassette subfamily E member 1),3,0.237
ZC3H18-DT (ZC3H18 divergent transcript),1,-0.0764
ZC3H18-DT (ZC3H18 divergent transcript),2,-1.46
ZC3H18-DT (ZC3H18 divergent transcript),3,-0.77
INTS3 (integrator complex subunit 3),1,0.43
INTS3 (integrator complex subunit 3),2,-0.88
INTS3 (integrator complex subunit 3),3,0.279
U2AF1L4 (U2 small nuclear RNA auxiliary factor 1 like 4),1,-0.488
U2AF1L4 (U2 small nuclear RNA auxiliary factor 1 like 4),2,1.61
U2AF1L4 (U2 small nuclear RNA auxiliary factor 1 like 4),3,-0.478
CAGE1 (cancer antigen 1),1,0.184
CAGE1 (cancer antigen 1),2,-0.093
CAGE1 (cancer antigen 1),3,0.92
MYH6 (myosin heavy chain 6),1,1.3
MYH6 (myosin heavy chain 6),2,2.03
MYH6 (myosin heavy chain 6),3,-0.381
MYO18A (myosin XVIIIA),1,2.26
MYO18A (myosin XVIIIA),2,-1.06
MYO18A (myosin XVIIIA),3,-0.812
LY6S-AS1 (LY6S antisense RNA 1),1,-0.385
LY6S-AS1 (LY6S antisense RNA 1),2,0.139
LY6S-AS1 (LY6S antisense RNA 1),3,-0.652
HAUS6 (HAUS augmin like complex subunit 6),1,0.103
HAUS6 (HAUS augmin like complex subunit 6),2,0.846
HAUS6 (HAUS augmin like complex subunit 6),3,3.26
PHOX2B (paired like homeobox 2B),1,0.86
PHOX2B (paired like homeobox 2B),2,0.447
PHOX2B (paired like homeobox 2B),3,2.62
ZC4H2 (zinc finger C4H2-type containing),1,0.112
ZC4H2 (zinc finger C4H2-type containing),2,-0.349
ZC4H2 (zinc finger C4H2-type containing),3,0.0506
